PubChem BioAssay AID1053208 | Peter MacCallum Cancer Centre | 2014
In all, the deposit lists about 17,000 reagents; below is an unselected part. 788 of all reagents (4.7%) count as active. 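Calls rest on z-score classes alone; an extra cut-off of viability at most 70% of control was not applied to them.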 Entries without a mark were called inactive.

Purpose: 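Synthetic lethal interactions between gene loss and doxorubicin in osteosarcoma cells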 (primary screen)
Cell system: mouse osteosarcoma cells, early-passage culture from an engineered mouse model of fibroblastic bone tumour
Reagents: siRNA pool against mouse genes, 40 nM
Timing: about 120 h (48 h before drug, then 72 h with drug)
Challenge: doxorubicin 100 nM for 72 h, roughly 30-40% inhibitory dose
Measured: 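Viability read as ATP luminescence after 72 h of 100 nM doxorubicin or none, duplicate wells averaged, scaled to non-targeting siRNA, then expressed as robust z-scores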
Scale: viability z-score with doxorubicin and doxorubicin viability vs non-targeting: higher = more viable cells under doxorubicin; viability z-score without drug: higher = more viable cells with knock-down alone; z-score of drug to no-drug ratio: higher = less drug sensitisation by knock-down
Hit rule: 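Called active if knock-down leaves viability unchanged without drug (z within -2 to 2) but lowers it with doxorubicin (z at or under -2)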

target gene,PubChem SID,combined z-score class,viability z-score with doxorubicin,viability z-score without drug,z-score of drug to no-drug ratio,doxorubicin viability vs non-targeting
Gpr137c (GeneID 70713),SID152266814,no change with or without drug,-0.45,0.51,-0.67,0.9
Gjc1 (GeneID 14615),SID152300243,high cell count with doxorubicin only,2.02,1.52,1.12,1.12
Il17rc (GeneID 171095),SID152314683,no change with or without drug,0.67,0.51,0.45,1
Gper1 (GeneID 76854),SID152325020,no change with or without drug,-0.67,-1.18,0.22,0.88
A630023P12Rik (GeneID 231603),SID152265223,no change with or without drug,-0.22,-0.84,0.45,0.92
Afg1l (GeneID 215951),SID152284389,no change with or without drug,-0.45,-0.51,0,0.9
Trp53i11 (GeneID 277414),SID152337580,no change with or without drug,-0.9,1.18,-1.57,0.86
Uqcc2 (GeneID 67267),SID152320177,no change with or without drug,-0.22,0,-0.11,0.92
Gapdhs (GeneID 14447),SID152270394,no change with or without drug,0.56,-0.17,0.79,0.99
Smim5 (GeneID 66528),SID152262001,no change with or without drug,-1.8,-0.84,-1.24,0.78
Acot8 (GeneID 170789),SID152297182,high cell count without drug only,0.11,2.36,-1.24,0.95
B4galnt1 (GeneID 14421),SID152319147,no change with or without drug,0.11,-0.67,0.67,0.95
Fbxo48 (GeneID 319701),SID152310283,no change with or without drug,1.35,0.84,0.9,1.06
Insr (GeneID 16337),SID152315338,no change with or without drug,-0.56,0.51,-0.79,0.89
9830132L24,SID152316199,no change with or without drug,-0.45,-0.84,0.22,0.9
1700120K04Rik (GeneID 68232),SID152331762,low cell count with doxorubicin only (active),-3.6,0.17,-3.71,0.62
Wdr33 (GeneID 74320),SID152326442,no change with or without drug,-0.9,-1.01,-0.11,0.86
Dctn2 (GeneID 69654),SID152275178,no change with or without drug,0.67,1.18,0,1
Gtpbp6 (GeneID 107999),SID152274268,no change with or without drug,-1.57,-1.35,-0.67,0.8
Eps15 (GeneID 13858),SID152275726,no change with or without drug,0.67,0.34,0.56,1
Cnp (GeneID 12799),SID152264479,no change with or without drug,1.01,1.69,0,1.03
Or10v1 (GeneID 258405),SID152280743,no change with or without drug,-1.91,-0.84,-1.35,0.77
Or6aa1 (GeneID 258612),SID152305281,no change with or without drug,-0.9,-1.01,-0.11,0.86
Uncx (GeneID 22255),SID152311051,no change with or without drug,-0.9,-0.84,-0.22,0.86
Apobec3 (GeneID 80287),SID152282575,no change with or without drug,1.91,1.18,1.24,1.11
Srp19 (GeneID 66384),SID152336577,low cell count without drug only,-1.35,-2.36,0.34,0.82
Sfxn3 (GeneID 94280),SID152272265,low cell count with doxorubicin only (active),-2.25,-1.18,-1.57,0.74
Cyp2d34 (GeneID 223706),SID152263825,no change with or without drug,-0.34,-0.17,-0.11,0.91
Pitpnm2 (GeneID 19679),SID152318491,low cell count with doxorubicin only (active),-2.02,0.17,-2.14,0.76
Sulf2 (GeneID 72043),SID152312920,no change with or without drug,0.45,0.51,0.22,0.98
Krr1 (GeneID 52705),SID152337800,low cell count with and without drug,-2.36,-3.04,-0.34,0.73
Or10p21 (GeneID 258861),SID152292839,no change with or without drug,0,0.51,-0.22,0.94
Atp5if1 (GeneID 11983),SID152294907,no change with or without drug,-0.22,0.51,-0.45,0.92
Haus1 (GeneID 225745),SID152337908,no change with or without drug,-0.67,-1.01,0.11,0.88
Ywhab (GeneID 54401),SID152261774,no change with or without drug,-0.22,0,-0.11,0.92
Eif2s2 (GeneID 67204),SID152291529,no change with or without drug,-1.35,-0.17,-1.24,0.82
Trpc4 (GeneID 22066),SID152323087,no change with or without drug,-0.34,0,-0.22,0.91
Rab15 (GeneID 104886),SID152334742,no change with or without drug,0.45,-0.51,1.01,0.98
Hfe (GeneID 15216),SID152339029,no change with or without drug,-0.79,0,-0.67,0.87
Pcdhb15 (GeneID 93886),SID152274378,low cell count with doxorubicin only (active),-2.02,-1.35,-1.24,0.76
Ylpm1 (GeneID 56531),SID152341176,high cell count without drug only,1.12,2.19,-0.22,1.04
Wdr13 (GeneID 73447),SID152299741,no change with or without drug,-1.91,1.69,-2.81,0.77
Cldn15 (GeneID 60363),SID152287799,low cell count with doxorubicin only (active),-2.47,-1.85,-1.35,0.72
Mbtd1 (GeneID 103537),SID152340056,no change with or without drug,0.11,-0.17,0.34,0.95
Defb1 (GeneID 13214),SID152264377,no change with or without drug,0.22,0.17,0.22,0.96
4931414P19Rik (GeneID 74359),SID152310266,no change with or without drug,-0.79,1.69,-1.69,0.87
Atp5pf (GeneID 11957),SID152281772,no change with or without drug,-1.24,-0.51,-0.9,0.83
Sft2d1 (GeneID 106489),SID152290858,no change with or without drug,0.9,1.18,0.22,1.02
Mapk1ip1l (GeneID 218975),SID152309961,no change with or without drug,-0.22,-0.51,0.22,0.92
Gmppa (GeneID 69080),SID152319544,no change with or without drug,0.22,-0.17,0.45,0.96

3 consecutive entries from above:
target gene,PubChem SID,combined z-score class,viability z-score with doxorubicin,viability z-score without drug,z-score of drug to no-drug ratio,doxorubicin viability vs non-targeting
Uqcc2 (GeneID 67267),SID152320177,no change with or without drug,-0.22,0,-0.11,0.92
Gapdhs (GeneID 14447),SID152270394,no change with or without drug,0.56,-0.17,0.79,0.99
Smim5 (GeneID 66528),SID152262001,no change with or without drug,-1.8,-0.84,-1.24,0.78
